According to patent US20120095062A1, “TRICYCLIC COMPOUNDS, COMPOSITIONS, AND METHODS” (Pfizer Inc., priority 2007, published 2012):

Test: Dissociation index (side-effect biomarker versus anti-inflammatory biomarker)
Assay type: in vivo, mice
[1] = across mice in different models using plasma exposure to normalize
[2] = relative to prednisolone, the 10th table

SMILES: Cc1ncccc1NC(=O)c1ccc2c(c1)CC[C@@H]1C[C@@](O)(C(F)(F)F)CC[C@@]21Cc1ccccc1 [Example 1, (4βS,7R,8αR)-4β-benzyl-7-hydroxy-N-(2-methylpyridin-3-yl)-7-(trifluoromethyl)-4β,5,6,7,8,8α,9,10-octahydrophenanthrene-2-carboxamide]
- Dissociation Index BFR/disease incidence (EAUC50) [1]: 6.8
- Dissociation Index BFR/disease severity (EAUC50) [1]: 3.0
- Dissociation Index OC/TNFα (ED80) (ratio of ED80 doses): greater than 4
- Corrected Dissociation Index BFR/TNFα (EAUC50) [2]: 12.0
- Corrected Dissociation Index BFR/disease incidence (EAUC50) [2]: 17.0
- Corrected Dissociation Index BFR/disease severity (EAUC50) [2]: 15.0
